# Measurements published in patent US20200239573A1 (CRESCENDO BIOLOGICS, published 2020).
# Where a chain is given by its changes, count along the chain named. Results are given in words; binding and its absence hold for the method and conditions named. Some entries that bind do so weakly or less than the wild type.
# B1: 1.57-4GS-1.57 (other)
# chain: QVQLVESGGGLVKPGGSLRLSCAASGFTFSDNSMTWMRQAPGKGLEWVSYISSGGGVIFYADSVKGRFTISRDNAKNSLYLQMNSLRADDTAVYYCAREAPLRLGESPHDAFDISGQGTMVTVSSGGGGSGGGGSGGGGSGGGGSQVQLVESGGGLVKPGGSLRLSCAASGFTFSDNSMTWMRQAPGKGLEWVSYISSGGGVIFYADSVKGRFTISRDNAKNSLYLQMNSLRADDTAVYYCAREAPLRLGESPHDAFDISGQGTMVTVSS
# notes: bivalent construct of two VH domains in one chain
# B2: Humabody® 1.1 (VHH)
# VHH: QVQLVESGGGLVKPGGSLRLSCAASGFTFSDYTMTWMRQAPGKGLEWVSYISTGGTIKYYTDSVKGRFTISRDNAKNSLYLQMNSLRADDTAVYYCAREAPLRLGESPHDAFDIWGQGTMVTVSS
# notes: human VH single domain antibody; also called VH single domain antibody 1.1; clone 1.1
# B3: Humabody® 1.57 (VHH)
# VHH: B2 VHH with Y32N, T33S, T53S, T56G, I57V, K58I, Y59F, T61A, W115S
# notes: human VH single domain antibody
# B4: Humabody® 1.92 (VHH)
# VHH: B2 VHH with Q1E, Y32E, T33S, T53S, T56G, I57V, Y59F, T61A, D89E, W115S
# notes: as for B3
# Target: T1, cynomolgus PD-1 recombinant protein (cynomolgus, UniProt B0LAJ3 25-170)
# T1 construct: Detected with anti human-Fc cryptate, so probably Fc tagged; also called cyno PD-1; cynomolgus PD-1 (Acro Biosystems cat no. PD-1-05254); not shown: The vendor's carrier tag; It is probably a human Fc, since detection used anti human-Fc cryptate
# Assay: HTRF binding
row,binding,Binder
1,binds,B1
2,binds,B2
3,binds,B3
4,binds,B4
